The supplement of paper PMC10849652
Some of the results follow.

Sequences of proteins named here, by UniProt entry; tags and fusion partners are left off. A change or cut given only in a name is not applied to a line headed by its entry.
UniProt P55196: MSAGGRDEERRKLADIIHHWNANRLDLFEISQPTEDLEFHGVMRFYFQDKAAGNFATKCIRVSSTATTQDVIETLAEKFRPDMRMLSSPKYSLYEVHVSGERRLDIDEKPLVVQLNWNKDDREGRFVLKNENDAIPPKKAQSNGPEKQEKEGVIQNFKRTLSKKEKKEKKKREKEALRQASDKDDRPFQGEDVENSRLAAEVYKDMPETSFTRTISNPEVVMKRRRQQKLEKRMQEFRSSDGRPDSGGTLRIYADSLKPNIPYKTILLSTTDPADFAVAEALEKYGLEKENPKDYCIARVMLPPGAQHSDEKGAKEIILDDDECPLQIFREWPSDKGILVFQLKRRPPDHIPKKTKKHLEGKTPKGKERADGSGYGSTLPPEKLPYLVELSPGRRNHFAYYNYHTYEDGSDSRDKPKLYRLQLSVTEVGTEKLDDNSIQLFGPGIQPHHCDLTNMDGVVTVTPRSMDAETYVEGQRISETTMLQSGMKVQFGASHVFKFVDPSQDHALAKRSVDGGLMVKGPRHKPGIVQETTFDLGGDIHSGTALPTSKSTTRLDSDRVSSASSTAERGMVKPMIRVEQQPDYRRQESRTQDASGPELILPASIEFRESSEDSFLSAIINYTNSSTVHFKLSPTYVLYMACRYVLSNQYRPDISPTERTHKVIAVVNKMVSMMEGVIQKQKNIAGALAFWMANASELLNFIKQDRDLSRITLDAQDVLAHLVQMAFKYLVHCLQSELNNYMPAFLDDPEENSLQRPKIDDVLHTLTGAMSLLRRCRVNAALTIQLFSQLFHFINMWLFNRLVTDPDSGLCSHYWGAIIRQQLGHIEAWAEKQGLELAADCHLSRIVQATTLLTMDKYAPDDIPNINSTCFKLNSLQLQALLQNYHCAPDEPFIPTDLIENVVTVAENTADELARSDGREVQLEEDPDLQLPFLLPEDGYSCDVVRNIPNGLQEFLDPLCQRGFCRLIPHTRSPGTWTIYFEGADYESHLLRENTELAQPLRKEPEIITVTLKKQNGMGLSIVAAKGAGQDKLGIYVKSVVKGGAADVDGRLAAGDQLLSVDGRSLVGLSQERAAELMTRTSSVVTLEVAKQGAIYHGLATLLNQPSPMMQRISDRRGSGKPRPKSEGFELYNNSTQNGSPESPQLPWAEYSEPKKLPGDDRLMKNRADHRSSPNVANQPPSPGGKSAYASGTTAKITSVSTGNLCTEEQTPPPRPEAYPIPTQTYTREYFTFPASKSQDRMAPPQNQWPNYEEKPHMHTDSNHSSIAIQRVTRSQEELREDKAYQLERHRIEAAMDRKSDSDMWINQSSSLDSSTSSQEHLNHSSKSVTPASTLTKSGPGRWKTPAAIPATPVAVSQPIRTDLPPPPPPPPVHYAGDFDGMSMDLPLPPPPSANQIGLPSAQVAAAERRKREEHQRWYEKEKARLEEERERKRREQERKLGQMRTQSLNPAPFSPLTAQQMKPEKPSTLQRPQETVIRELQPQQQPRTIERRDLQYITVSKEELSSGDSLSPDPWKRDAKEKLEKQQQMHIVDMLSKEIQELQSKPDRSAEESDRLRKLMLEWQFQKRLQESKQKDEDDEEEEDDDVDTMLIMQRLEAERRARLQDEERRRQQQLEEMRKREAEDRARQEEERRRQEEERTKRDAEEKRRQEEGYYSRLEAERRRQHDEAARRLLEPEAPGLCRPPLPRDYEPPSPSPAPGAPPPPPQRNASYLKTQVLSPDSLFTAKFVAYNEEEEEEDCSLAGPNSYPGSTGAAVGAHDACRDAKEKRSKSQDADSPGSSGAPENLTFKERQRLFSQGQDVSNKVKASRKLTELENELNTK
UniProt Q9BQI0: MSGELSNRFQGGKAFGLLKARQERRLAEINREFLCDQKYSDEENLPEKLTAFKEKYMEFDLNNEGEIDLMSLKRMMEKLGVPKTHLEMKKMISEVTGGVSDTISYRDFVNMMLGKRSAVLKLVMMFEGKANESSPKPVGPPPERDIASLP
UniProt Q9BRQ8: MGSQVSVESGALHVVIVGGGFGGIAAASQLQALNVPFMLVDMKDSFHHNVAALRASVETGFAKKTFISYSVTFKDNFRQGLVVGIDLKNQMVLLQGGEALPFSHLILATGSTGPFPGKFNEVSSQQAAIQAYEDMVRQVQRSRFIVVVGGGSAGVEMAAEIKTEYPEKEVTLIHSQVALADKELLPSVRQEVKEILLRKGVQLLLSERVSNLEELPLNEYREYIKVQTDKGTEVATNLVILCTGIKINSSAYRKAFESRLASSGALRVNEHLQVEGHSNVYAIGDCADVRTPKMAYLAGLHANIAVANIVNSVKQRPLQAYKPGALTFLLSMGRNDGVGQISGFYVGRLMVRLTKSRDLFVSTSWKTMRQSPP
UniProt Q9Y4W6: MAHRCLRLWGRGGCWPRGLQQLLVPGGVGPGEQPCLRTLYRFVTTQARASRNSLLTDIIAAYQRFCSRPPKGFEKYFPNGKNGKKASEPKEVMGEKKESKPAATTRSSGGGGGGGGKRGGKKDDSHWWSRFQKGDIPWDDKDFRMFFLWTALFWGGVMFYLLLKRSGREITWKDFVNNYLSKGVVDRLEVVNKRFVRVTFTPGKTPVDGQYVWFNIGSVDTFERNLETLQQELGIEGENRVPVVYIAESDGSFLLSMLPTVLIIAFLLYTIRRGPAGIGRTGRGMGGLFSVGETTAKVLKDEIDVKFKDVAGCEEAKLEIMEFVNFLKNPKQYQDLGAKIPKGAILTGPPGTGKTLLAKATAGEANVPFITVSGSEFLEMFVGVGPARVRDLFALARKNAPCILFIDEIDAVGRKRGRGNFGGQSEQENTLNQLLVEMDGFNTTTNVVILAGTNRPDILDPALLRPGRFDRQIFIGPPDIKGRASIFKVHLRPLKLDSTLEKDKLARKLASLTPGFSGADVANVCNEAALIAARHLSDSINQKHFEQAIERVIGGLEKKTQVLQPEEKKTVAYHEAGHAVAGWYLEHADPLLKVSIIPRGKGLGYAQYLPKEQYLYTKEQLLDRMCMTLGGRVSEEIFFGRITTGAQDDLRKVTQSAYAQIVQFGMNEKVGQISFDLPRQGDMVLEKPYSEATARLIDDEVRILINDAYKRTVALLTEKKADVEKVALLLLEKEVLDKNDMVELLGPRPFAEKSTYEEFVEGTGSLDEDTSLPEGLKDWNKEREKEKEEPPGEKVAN
UniProt Q9UEY8: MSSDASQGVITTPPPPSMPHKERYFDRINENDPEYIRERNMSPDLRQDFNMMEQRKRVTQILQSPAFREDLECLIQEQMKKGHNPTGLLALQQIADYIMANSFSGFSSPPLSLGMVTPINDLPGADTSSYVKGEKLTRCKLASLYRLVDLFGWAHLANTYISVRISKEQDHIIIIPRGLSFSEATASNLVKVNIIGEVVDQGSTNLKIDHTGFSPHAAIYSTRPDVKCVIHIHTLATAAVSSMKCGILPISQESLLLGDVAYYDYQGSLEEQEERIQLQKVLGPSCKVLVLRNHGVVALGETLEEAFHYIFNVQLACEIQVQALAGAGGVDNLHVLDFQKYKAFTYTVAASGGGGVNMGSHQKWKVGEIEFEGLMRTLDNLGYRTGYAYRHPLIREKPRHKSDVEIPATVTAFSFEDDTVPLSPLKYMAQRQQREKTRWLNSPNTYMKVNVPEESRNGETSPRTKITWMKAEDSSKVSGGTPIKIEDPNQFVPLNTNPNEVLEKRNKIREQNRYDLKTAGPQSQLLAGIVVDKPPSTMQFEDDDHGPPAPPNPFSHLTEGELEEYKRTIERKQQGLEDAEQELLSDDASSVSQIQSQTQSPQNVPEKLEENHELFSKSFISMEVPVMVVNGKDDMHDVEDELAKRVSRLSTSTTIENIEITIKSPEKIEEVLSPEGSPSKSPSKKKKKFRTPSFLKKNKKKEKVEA
UniProt Q6ULP2: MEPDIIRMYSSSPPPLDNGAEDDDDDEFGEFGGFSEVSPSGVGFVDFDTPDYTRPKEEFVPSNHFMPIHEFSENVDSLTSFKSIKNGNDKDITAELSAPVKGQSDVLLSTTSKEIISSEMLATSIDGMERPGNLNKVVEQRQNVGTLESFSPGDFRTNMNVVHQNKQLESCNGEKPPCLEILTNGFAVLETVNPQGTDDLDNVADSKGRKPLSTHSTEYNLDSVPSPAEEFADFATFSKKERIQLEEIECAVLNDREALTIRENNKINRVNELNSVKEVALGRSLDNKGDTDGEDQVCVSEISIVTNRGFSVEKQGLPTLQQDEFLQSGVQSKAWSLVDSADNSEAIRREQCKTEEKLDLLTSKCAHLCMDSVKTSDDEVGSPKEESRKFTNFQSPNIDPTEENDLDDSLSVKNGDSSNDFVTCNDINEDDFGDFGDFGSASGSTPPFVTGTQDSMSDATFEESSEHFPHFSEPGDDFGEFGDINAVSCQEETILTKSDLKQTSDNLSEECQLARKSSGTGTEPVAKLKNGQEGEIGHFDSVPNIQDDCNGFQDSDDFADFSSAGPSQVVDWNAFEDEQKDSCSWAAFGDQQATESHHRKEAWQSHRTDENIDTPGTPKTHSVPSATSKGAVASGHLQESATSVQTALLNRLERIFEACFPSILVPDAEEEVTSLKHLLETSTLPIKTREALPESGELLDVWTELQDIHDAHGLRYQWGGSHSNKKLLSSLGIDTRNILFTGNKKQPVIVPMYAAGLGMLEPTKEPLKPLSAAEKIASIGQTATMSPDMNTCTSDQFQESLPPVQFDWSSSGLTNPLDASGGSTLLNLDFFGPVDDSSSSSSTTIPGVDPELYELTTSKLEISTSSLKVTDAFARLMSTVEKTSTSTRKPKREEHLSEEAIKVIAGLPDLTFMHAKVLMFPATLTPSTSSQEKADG
UniProt P35612: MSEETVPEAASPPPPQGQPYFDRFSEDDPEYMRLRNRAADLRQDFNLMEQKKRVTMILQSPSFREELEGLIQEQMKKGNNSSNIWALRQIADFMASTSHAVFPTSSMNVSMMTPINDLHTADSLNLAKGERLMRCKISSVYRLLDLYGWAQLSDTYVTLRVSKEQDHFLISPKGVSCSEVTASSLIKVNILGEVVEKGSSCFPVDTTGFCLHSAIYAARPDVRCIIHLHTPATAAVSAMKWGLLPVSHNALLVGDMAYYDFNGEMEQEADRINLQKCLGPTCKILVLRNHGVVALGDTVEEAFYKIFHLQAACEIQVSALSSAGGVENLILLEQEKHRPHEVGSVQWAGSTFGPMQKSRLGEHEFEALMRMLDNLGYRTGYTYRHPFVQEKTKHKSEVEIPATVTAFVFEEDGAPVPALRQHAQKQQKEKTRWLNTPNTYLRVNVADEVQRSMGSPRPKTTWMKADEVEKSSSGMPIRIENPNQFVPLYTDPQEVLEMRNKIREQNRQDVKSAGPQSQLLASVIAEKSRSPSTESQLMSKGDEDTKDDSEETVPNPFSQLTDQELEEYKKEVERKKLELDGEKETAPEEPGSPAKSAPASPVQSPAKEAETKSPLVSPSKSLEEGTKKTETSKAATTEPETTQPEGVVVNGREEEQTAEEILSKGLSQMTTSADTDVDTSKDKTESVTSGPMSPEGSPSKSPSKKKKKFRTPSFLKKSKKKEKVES
UniProt Q12904: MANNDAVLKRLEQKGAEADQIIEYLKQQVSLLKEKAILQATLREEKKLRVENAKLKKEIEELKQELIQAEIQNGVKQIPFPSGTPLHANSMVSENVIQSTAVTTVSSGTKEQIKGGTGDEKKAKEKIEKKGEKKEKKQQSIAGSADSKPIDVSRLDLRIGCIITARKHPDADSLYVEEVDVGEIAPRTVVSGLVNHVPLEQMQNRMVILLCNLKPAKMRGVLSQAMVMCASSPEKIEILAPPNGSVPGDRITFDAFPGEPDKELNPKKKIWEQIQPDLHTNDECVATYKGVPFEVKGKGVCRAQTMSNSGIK
UniProt P00352: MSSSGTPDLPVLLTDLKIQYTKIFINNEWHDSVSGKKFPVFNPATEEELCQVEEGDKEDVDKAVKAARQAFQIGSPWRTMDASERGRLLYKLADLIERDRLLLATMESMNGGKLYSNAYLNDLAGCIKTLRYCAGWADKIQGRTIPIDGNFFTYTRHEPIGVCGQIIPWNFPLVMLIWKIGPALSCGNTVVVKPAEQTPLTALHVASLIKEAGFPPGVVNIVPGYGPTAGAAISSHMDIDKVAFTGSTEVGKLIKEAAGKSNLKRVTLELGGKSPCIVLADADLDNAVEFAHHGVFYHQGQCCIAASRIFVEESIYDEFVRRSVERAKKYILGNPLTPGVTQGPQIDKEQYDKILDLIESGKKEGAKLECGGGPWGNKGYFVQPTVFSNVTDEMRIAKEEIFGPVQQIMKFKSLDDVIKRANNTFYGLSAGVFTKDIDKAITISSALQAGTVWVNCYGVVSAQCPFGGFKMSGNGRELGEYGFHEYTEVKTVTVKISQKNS

Columns and labels:
Test in all cases: log2 fold change, soluble protein after heating vs DMSO (PISA); higher = thermal stabilisation; K562 cells, 10 uM, 30 min; active = over 0.2 and 3.5 SD of the protein, either way, in both replicates (recomputed)
erlotinib = compound: C#Cc1cccc(Nc2ncnc3cc(OCCOC)c(OCCOC)cc23)c1 [erlotinib]
Summary of the method: (§1)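 For each measurement, 10 μM compound was applied for 30 min to K562 cells at 2×10^6 cells/mL. Aliquots were heated for 3 min across 48°C-58°C, pooled, and extracted in PBS with 0.5% NP-40 at 4°C; the supernatant after 21,000xg for 90 min was soluble protein. This was quantified by TMTpro 16plex LC-MS/MS with channel sums equalised, and thermal stability was reported relative to control samples from duplicates, on a log2 fold-change scale.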

[1] = compound: C/C(=N\NC(=O)C1=CC(=CC=C1)S(=O)(=O)N2CCOCC2)/C3=C(C=CC(=C3)Cl)O
Summary of the method: as §1

[2] = compound: C1=CC(=C(C=C1Cl)C2=NC3=NC=CN=C3C(=N2)NC4=CC=NC=C4)F
Summary of the method: as §1

[3] = compound: C1=CC(=CC=C1C2=NC3=C(N2)C=C(C=C3)C(=O)N)OC4=CC=C(C=C4)Cl
Summary of the method: as §1

[4] = compound: C1=CC2=C(C=CC(=C2)/C=C\3/C(=O)NC(=NCC4=CC=CS4)S3)N=C1
Summary of the method: as §1

[5] = compound: C1=CC2=NC=CN=C2C=C1/C=C/3\C(=O)NC(=O)S3
Summary of the method: as §1

[6] = compound: C1=CC=C(C=C1)C2=NC(=C(N2)C3=CC=NC=C3)C4=CC(=C(C=C4)Cl)O
Summary of the method: as §1

[7] = compound: C1=CC=C2C(=C1)C3=NNC4=CC=CC(=C43)C2=O
Summary of the method: as §1

[8] = compound: C1CCN(C1)C(=O)NC2=CC=CC(=C2)NC3=NC=C(C(=N3)NCCC4=CN=CN4)Br
Summary of the method: as §1

[9] = compound: C1CN(CCC1(CC2=CC=C(C=C2)Cl)N)C3=NC=NC4=C3C=CN4
Summary of the method: as §1

Measured: log2 fold change

AKAP8 (UniProt O43823)
inactive: erlotinib -0.056 | [1] 0.032 | [2] 0.074 | [3] 0.039 | [4] -0.028 | [5] -0.004 | [6] -0.039 | [7] -0.068 | [8] 0.015 | [9] 0.018

ALDH5A1 isoform 2 (UniProt P51649)
inactive: erlotinib 0.007 | [1] 0.042 | [2] 0.057 | [3] 0.01 | [4] -0.009 | [5] 0.016 | [6] -0.004 | [7] -0.012 | [8] -0.01 | [9] 0.046

AFDN isoform 1 (UniProt P55196)
inactive: erlotinib -0.008 | [1] 0.072 | [2] 0.002 | [3] -0.003 | [4] -0.136 | [5] -0.018 | [6] -0.082 | [7] -0.005

AIF1L isoform 2 (UniProt Q9BQI0)
inactive: erlotinib 0.007 | [1] 0.31 | [2] 0.308 | [3] 0.074 | [4] 0.2 | [5] -0.064 | [6] 0.009 | [7] -0.197

AIFM2 (UniProt Q9BRQ8)
inactive: erlotinib -0.038 | [1] 0.045 | [2] -0.001 | [3] 0.064 | [4] -0.025 | [5] -0.032 | [6] 0.041 | [7] 0.172 | [8] -0.045 | [9] 0.064

AGTRAP (UniProt Q6RW13)
inactive: erlotinib 0.024 | [1] -0.065 | [2] -0.074 | [3] 0.048 | [4] 0.013 | [5] 0.083 | [6] -0.059 | [7] -0.021 | [8] -0.007 | [9] 0.03

AKT1S1 isoform 3 (UniProt Q96B36)
inactive: erlotinib 0.018 | [1] -0.027 | [2] 0.008 | [3] 0.049 | [4] 0.097 | [5] 0.021 | [6] -0.089 | [7] -0.025 | [8] 0.05 | [9] 0.102

AFG3L2 (UniProt Q9Y4W6)
inactive: erlotinib 0.024 | [1] -0.09 | [2] 0.034 | [3] -0.073 | [4] 0 | [5] 0.04 | [6] 0.015 | [7] 0.007 | [8] 0.01 | [9] 0.012

ADD3 (UniProt Q9UEY8)
inactive: erlotinib 0.018 | [1] 0 | [2] -0.008 | [3] 0.025 | [4] 0.02 | [5] 0.013 | [6] -0.025 | [7] -0.024 | [8] -0.015 | [9] 0.031

AFTPH isoform 9 (UniProt Q6ULP2)
inactive: erlotinib -0.022 | [1] 0.021 | [2] -0.062 | [3] 0.03 | [4] 0.02 | [5] 0.065 | [6] -0.029 | [7] 0.034 | [8] -0.016 | [9] 0.002

ALG2 (UniProt Q9H553)
inactive: erlotinib 0.004 | [1] 0.108 | [2] -0.011 | [3] -0.029 | [4] 0.054 | [5] -0.015 | [6] -0.009 | [7] 0.026 | [8] 0.009 | [9] 0.011

ALG10B (UniProt Q5I7T1)
inactive: erlotinib -0.001 | [1] 0.055 | [2] 0.021 | [3] -0.033 | [4] 0.083 | [5] 0.05 | [6] 0.063 | [7] -0.035 | [8] -0.014 | [9] 0.042

AGPAT5 (UniProt Q9NUQ2)
inactive: erlotinib 0.042 | [1] -0.019 | [2] -0.003 | [3] 0.014 | [4] 0.009 | [5] 0.048 | [6] 0.07 | [7] -0.001 | [8] -0.017 | [9] 0.079

ALG9 isoform 3 (UniProt Q9H6U8)
inactive: erlotinib 0.022 | [1] 0.006 | [2] -0.004 | [3] 0.014 | [4] 0.041 | [5] 0.003 | [6] 0.026 | [7] -0.046 | [8] -0.004 | [9] 0.002

AGO2 (UniProt Q9UKV8)
inactive: erlotinib -0.027 | [1] -0.037 | [2] -0.21 | [3] 0.016 | [4] -0.009 | [5] 0.037 | [6] -0.033 | [7] -0.111 | [8] 0.012 | [9] -0.011

ANAPC1 (UniProt Q9H1A4)
inactive: erlotinib -0.058 | [1] -0.025 | [2] -0.023 | [3] 0.008 | [4] 0.011 | [5] 0.025 | [6] 0.007 | [7] -0.01 | [8] 0.008 | [9] -0.018

ALYREF (UniProt Q86V81)
inactive: erlotinib -0.144 | [1] -0.169 | [2] -0.344 | [3] -0.02 | [4] -0.111 | [5] 0.005 | [6] -0.079 | [7] -0.024 | [8] 0.078 | [9] -0.162

AGFG1 isoform 4 (UniProt P52594)
inactive: erlotinib -0.02 | [1] 0.071 | [2] 0.101 | [3] 0.009 | [4] 0.02 | [5] 0.013 | [6] -0.028 | [7] -0.01 | [8] -0.064 | [9] 0.062

ADSS1 (UniProt Q8N142)
inactive: erlotinib 0.037 | [1] 0.061 | [2] 0.03 | [3] 0.068 | [4] 0.01 | [5] -0.007 | [6] -0.023 | [7] 0.002 | [8] -0.033 | [9] -0.029

AKR1C2 (UniProt P52895)
inactive: erlotinib 0.07 | [1] 0.014 | [2] -0.101 | [3] -0.092 | [4] 0.001 | [5] 0.085 | [6] 0.292 | [7] -0.038 | [8] 0.044 | [9] -0.028

ADD2 (UniProt P35612)
inactive: erlotinib 0.008 | [1] -0.011 | [2] 0.025 | [3] 0.004 | [4] -0.004 | [5] 0.022 | [6] 0.012 | [7] -0.005 | [8] 0.004 | [9] 0.016

AIMP1 isoform 2 (UniProt Q12904)
inactive: erlotinib 0.036 | [1] -0.03 | [2] -0.072 | [3] -0.002 | [4] -0.013 | [5] 0.013 | [6] -0.017 | [7] -0.027 | [8] 0.066 | [9] -0.127

AHCTF1 isoform 2 (UniProt Q8WYP5)
inactive: erlotinib -0.003 | [1] -0.023 | [2] -0.111 | [3] 0.071 | [4] 0.005 | [5] -0.067 | [6] -0.029 | [7] -0.02 | [8] -0.053 | [9] 0.056

AKAP1 (UniProt Q92667)
inactive: erlotinib 0.024 | [1] 0.007 | [2] -0.184 | [3] -0.003 | [4] 0.06 | [5] 0.025 | [6] 0.002 | [7] 0.03 | [8] -0.046 | [9] -0.116

AGO4 (UniProt Q9HCK5)
inactive: erlotinib -0.094 | [1] -0.053 | [2] -0.127 | [3] 0.015 | [4] 0.04 | [5] 0.006 | [6] -0.024 | [7] -0.079 | [8] 0.051 | [9] -0.073

ALDH1A1 (UniProt P00352)
inactive: erlotinib 0.006 | [1] 0.049 | [2] 0.098 | [3] 0.025 | [4] -0.025 | [5] -0.026 | [6] 0.048 | [7] 0.088 | [8] -0.047 | [9] 0.036

AMD1 (UniProt P17707)
inactive: erlotinib 0.078 | [1] -0.004 | [2] 0.039 | [3] 0.094 | [4] 0.091 | [5] -0.002 | [6] 0.127 | [7] 0.035 | [8] -0.224 | [9] 0.025

AMPD2 (UniProt Q01433)
inactive: erlotinib -0.001 | [1] -0.002 | [2] 0.039 | [3] 0.009 | [4] 0.013 | [5] 0.001 | [6] 0.019 | [7] 0.019 | [8] 0.017 | [9] 0.061

ADRM1 (UniProt Q16186)
inactive: erlotinib -0.069 | [1] -0.038 | [2] -0.007 | [3] 0.006 | [4] 0.034 | [5] 0.033 | [6] 0.028 | [7] 0.046 | [8] -0.017 | [9] -0.076

Nine consecutive records already listed, quoted:
ADSS1 (UniProt Q8N142)
inactive: erlotinib 0.037 | [1] 0.061 | [2] 0.03 | [3] 0.068 | [4] 0.01 | [5] -0.007 | [6] -0.023 | [7] 0.002 | [8] -0.033 | [9] -0.029

AKR1C2 (UniProt P52895)
inactive: erlotinib 0.07 | [1] 0.014 | [2] -0.101 | [3] -0.092 | [4] 0.001 | [5] 0.085 | [6] 0.292 | [7] -0.038 | [8] 0.044 | [9] -0.028

ADD2 (UniProt P35612)
inactive: erlotinib 0.008 | [1] -0.011 | [2] 0.025 | [3] 0.004 | [4] -0.004 | [5] 0.022 | [6] 0.012 | [7] -0.005 | [8] 0.004 | [9] 0.016

AIMP1 isoform 2 (UniProt Q12904)
inactive: erlotinib 0.036 | [1] -0.03 | [2] -0.072 | [3] -0.002 | [4] -0.013 | [5] 0.013 | [6] -0.017 | [7] -0.027 | [8] 0.066 | [9] -0.127

AHCTF1 isoform 2 (UniProt Q8WYP5)
inactive: erlotinib -0.003 | [1] -0.023 | [2] -0.111 | [3] 0.071 | [4] 0.005 | [5] -0.067 | [6] -0.029 | [7] -0.02 | [8] -0.053 | [9] 0.056

AKAP1 (UniProt Q92667)
inactive: erlotinib 0.024 | [1] 0.007 | [2] -0.184 | [3] -0.003 | [4] 0.06 | [5] 0.025 | [6] 0.002 | [7] 0.03 | [8] -0.046 | [9] -0.116

AGO4 (UniProt Q9HCK5)
inactive: erlotinib -0.094 | [1] -0.053 | [2] -0.127 | [3] 0.015 | [4] 0.04 | [5] 0.006 | [6] -0.024 | [7] -0.079 | [8] 0.051 | [9] -0.073

ALDH1A1 (UniProt P00352)
inactive: erlotinib 0.006 | [1] 0.049 | [2] 0.098 | [3] 0.025 | [4] -0.025 | [5] -0.026 | [6] 0.048 | [7] 0.088 | [8] -0.047 | [9] 0.036

AMD1 (UniProt P17707)
inactive: erlotinib 0.078 | [1] -0.004 | [2] 0.039 | [3] 0.094 | [4] 0.091 | [5] -0.002 | [6] 0.127 | [7] 0.035 | [8] -0.224 | [9] 0.025

The list continues.

ALDH16A1 (UniProt Q8IZ83)
inactive: erlotinib 0.024 | [1] 0 | [2] 0.011 | [3] 0.027 | [4] 0.025 | [5] -0.018 | [6] -0.02 | [7] -0.002 | [8] -0.008 | [9] 0.021
